According to PubChem BioAssay AID1508600 (Functional Genomics Laboratory (NCATS/FGL), 2020):
In all, about 53,000 sequences went through this assay and about 3,700 (7%) were called active.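 Rule for the calls: active = gene knockdowns whose robust z-score for IL-1 alpha signal is at least 2 or at most -2, so actives lie on both sides; inactive = the rest.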 The list shows a part of the results.

experiment: Components of the Cytosolic LPS Sensing Pathway: Gene Identification via Genome-wide siRNA Screen; conditions: RAW264.7 macrophages, IL-1a HTRF, actives lie on both sides, screened at 100 nM (by protocol), cells primed 5 h with Pam3CSK4 first;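 note: robust z of the log signal after scaling to non-targeting control siRNA wells of the plate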
In short: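 Read-out: IL-1a HTRF on supernatant, divided by plate negative-control median ×100, log-transformed and converted to robust z-score. Cells were RAW264.7 given 100 nM siRNA, Pam3CSK4-primed 5 hours, then LipidA-transfected 24 hour.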

z-score, inactive:
GCUAACAUGUUGUCUUAAATT against Tspan12 0.644
CCUGUUAGAACAUAAGGGCTT against Thy1 0.0968
GGGCUAUUGCAUCUUUUAATT against Olfr711 -0.0884
GGAUCCAUCCGUCUCUAAGTT against Rprd2 0.628
GGACUGAGGUAUCAUUUACTT against Gtf2f2 0.953
GCUCCUAGACAACAUCGUGTT against Ppp1r3b 1.81
CCCAUUUGCUCUGUGGAUCTT against Tha1 0.289
GGAAGCUGAAGGUUUGCCATT against Wipi2 -0.529
GGUAAGUCACCAUUAUACCTT against Pcdhb12 1.31
GGAAGUGAUGAUAAGUCUATT against D6Wsu163e 1.18
GGAAACACCAGAGAAGUCCTT against Etf1 -0.56
GGCCAGAGACUGCCUGAUUTT against Acaa1b 0.225
GGAAGAAAACAUUUAGCCCTT against Mmd2 0.504
GCUGACCACUUCAAGGUUGTT against Lgals3 0.468
GGAGAACCUGAGCUAUGAUTT against Hsph1 -0.54
GGUUCCAUCGAAAUUGACGTT against Plekhs1 -0.579
GCGUAGAAGACACUUAUAGTT against Zc3h14 1.47
GGGAGAAGAAAAUGACUUUTT against Edaradd -0.0664
GGAAAAAAAAAUCAGAAGGTT against Trp53bp2 0.302
CCCGUAUGAGAAGUUCUAATT against Pttg1ip -0.394
GGCAUUGUCCUGUGAUCUCTT against Il10ra -0.724
CCCUAUGCAAUAUAUAGACTT against Tmsb15l 0.174
GGUUGCCUCAACUCCAUUGTT against Olfr1412 -0.426
GGAAAUACAAGUGGAAUUGTT against Etnppl 0.204
GGACAGAUGCCAUCUCAGUTT against Anxa7 -1.02
CGUAAAGCUUCCUGUGUCUTT against Tyw3 -0.454
GCAGAGGUCUUACAAUUUATT against Epb41l2 0.624
GGCCUGGUAUAUAUCUGUCTT against Olfr6 -1.41
GGUUGUUGGCUGGAUGAUATT against Acvr2a -1.29
CGAAUCCUCACUAAAUUGGTT against Cnn3 -1.32
GGAACUUUCCUUUUUUGUCTT against Serpinb5 0.889
GGUUUUGAAAUUCCAGAAUTT against Nol9 -0.22
GGAAAUUUAGAGUGGUUCGTT against Wdyhv1 -0.246
GGAGAAGAAGAAAUCCAAATT against Scn11a 1.45
GGUCAAUGAGUUAGCUAUATT against Olfr1132 -1.85
CCCAGGCUCCUAUUUGUUUTT against Calml3 0.288
CCUCCUUUAAGGAAAACCCTT against Alb -1.38
GGAUGACUAUGUGAAUAUATT against 4933404G15Rik -0.633
GGCGAAGAAGAAUAAAAGATT against Lyar 1.37
GGUCAGCGAACCACGAUAATT against Olfr314 -0.792
GGAAUUAUGGAUUGUUAAGTT against Olfr212 0.756
GGUAAAUUACCCAAAGGUATT against Mrtfa -0.494
CCAUAGUUGAUGGAAGAUATT against Shld2 -0.847
GGGCCAUAUGUCUUUGCUATT against Olfr998 1.1
GGAAACUGUACAGAUAUUGTT against Fbn2 -0.885
CGAUUGCUAAGGUGUUUGATT against Sfmbt1 -0.45
GGAGGAUCAUGGUUGGGAUTT against Zkscan8 -0.229
GCAGGAAUCUAAUCUGCUGTT against Gpd1 1.16
GGGACAAUAACCUGAUGCUTT against Vmn1r210 0.15
GGUCCAGAUCCACCAGAUUTT against Banp 1.11
GCCAAGAAGAUGGAUCCGCTT against Zfp865 -1.16
GGCGAUCUAUCACACUGUGTT against Chst7 -0.443
GGAGAAAGUCUCUCUUAGUTT against Ccdc69 0.55
GCGAAUCACCACCAUCACATT against Pcbp4 -0.396
GGAACCUGCAUGAUAUAGGTT against Zfp617 0.683
GGAUGAAUUGAUUGAGAUCTT against Sv2a -1.24
CCUCUCAUUGGGAUGUUACTT against Slc9b1 -1.59
GCGCAAGGAGAUCAUAGUCTT against Ankrd53 0.996
GGAGGAGUGUGUGAAAGGATT against Terf2ip 0.743
GGAGCUCACCAAAAUAGCUTT against Akr1c21 -0.77
GGGUUUUAUGACCUUCAAGTT against Zkscan14 0.655
GGUGAUCCAGCUUUCUUGGTT against Tiaf2 -0.351
GGAUCUCGUGCGAAAAAAATT against Olfr809 -0.292
CCGCUAACUAAAAAAAUCGTT against Xiap 0.395
UCACCGAAUGUCUUCUUCUTT against Olfr47 1.93
GGACAACAGCAAAACAUCUTT against Atoh1 -0.757
GCCUUAAUGAGGGUUAUGCTT against Fbp1 -1.11
GCUCUUAACAACGGGUGGATT against A130079P16Rik -1.54
GCUGAAAGCAUCCAAUGGGTT against Epb41 0.0831
GUCACUGUGAUGGGAAAUUTT against Olfr895 -0.847
GGCUUUUGACUUCUUUGAGTT against Hs1bp3 -0.306
GCUUGGGUACUAUGUAACATT against Rbm8a 0.313
GGCUCUUGGUCCAAUAAAATT against Zdhhc14 -0.803
GCUACUCAGUCAACUCAAGTT against Ppp1r14d 0.119
GGAAGAGCACUUGAGGAUGTT against Gpank1 -0.186
GGAGAAGCGGCAAAUGGAATT against Fam32a 0.429
GGCAGCAAAAACAAGAGCCTT against Hmga2 -0.114
CCUUUAACCCUUUACACCUTT against Epop 0.0993
GGGACUGAGGACUACAUUCTT against Eif1b -1.17
GGGAGUUAUAUAAAUGCAUTT against Taf7l -1.13
CGUGGUCAGGUUGUUUGAUTT against Cdk6 0.885
GCCCAUUGUAAGAGUAACUTT against Dnttip2 0.168
ACAUUCUUGGUUGAGUGCUTT against Olfr198 0.195
GCUCUAUAAGCUAUCAGGGTT against Ntn1 0.279
CCAUCGGCGACUUGAAGAATT against Ubl5 -0.876
GGCAUUUGCCAAGAAAAAUTT against Lpgat1 -1.54
GGAAAUGAAGAGUGUUGAATT against Slc7a3 -0.4
GCGUGUAAGGUCUUCAUCUTT against Ranbp3l 0.633
GGACCACCUAAGUUUAAGCTT against Pde6g -0.557
GGAAGAAUUUCUUGAGACATT against Gsta4 0.102
GGUAGUGAGCAUUGAGAAGTT against Tbc1d8 -0.997
GGAGUGAAUAUUGAAAAUCTT against Ctag2 0.234
GCGAAUUGCAUUCCUGUUUTT against Fam91a1 0.809
GGCAAAAGAACAAAGAAAATT against Mrps5 0.683
GGCUCUUAAUUGCUGAGUUTT against Acadl 0.312
CCUGUCCAAUCAUCACAAGTT against Apol7a -1.44
GCGAGACAAUUGUUAUUGATT against Zmym2 -1.05

Five entries drawn at random from those above:
z-score, inactive:
GGAAGCUGAAGGUUUGCCATT against Wipi2 -0.529
CGAUUGCUAAGGUGUUUGATT against Sfmbt1 -0.45
CCCAUUUGCUCUGUGGAUCTT against Tha1 0.289
CCCAGGCUCCUAUUUGUUUTT against Calml3 0.288
GGAAACUGUACAGAUAUUGTT against Fbn2 -0.885

No new results follow: an excerpt of the list.
z-score, inactive:
GGAAGAAUUUCUUGAGACATT against Gsta4 0.102
GGUAGUGAGCAUUGAGAAGTT against Tbc1d8 -0.997
GGAGUGAAUAUUGAAAAUCTT against Ctag2 0.234

Following part:

z-score, active:
CCGGUUUCAAAUUGCCACUTT against Psmb4 -2.73
GCCUUUCUUCUGUCAAUGATT against Olfr281 2.38
GGAAAUCGAAUGAAUAACCTT against Klf12 3.45
AUGCUUUGAUCAGUAUGAATT against Vmn1r188 -2.38
GGAAAGUCCUUCAUCAGCATT against Cep120 -2.91
CCAUGGCACAGACAGCUAUTT against Celf1 -2.02
GGAGAAAGGUGGUUUGGUATT against Sap30bp -2.85
GCAGAAGAAGAAGGGUUCCTT against Emx1 3.59
CGCCAAAAGUUCUUGCCAUTT against Olfr618 -2.02
